Source: article PMC12282078
Results are given in words; binding and its absence hold for the method and conditions named. In cells and extracts the contact can be indirect. Some entries that bind do so weakly or less than the wild type. For some assays here: Tags and fused reporters may be left off the sequences shown.

Sequences of proteins named here, by UniProt entry; tags and fusion partners are left off.
UniProt Q86WV6: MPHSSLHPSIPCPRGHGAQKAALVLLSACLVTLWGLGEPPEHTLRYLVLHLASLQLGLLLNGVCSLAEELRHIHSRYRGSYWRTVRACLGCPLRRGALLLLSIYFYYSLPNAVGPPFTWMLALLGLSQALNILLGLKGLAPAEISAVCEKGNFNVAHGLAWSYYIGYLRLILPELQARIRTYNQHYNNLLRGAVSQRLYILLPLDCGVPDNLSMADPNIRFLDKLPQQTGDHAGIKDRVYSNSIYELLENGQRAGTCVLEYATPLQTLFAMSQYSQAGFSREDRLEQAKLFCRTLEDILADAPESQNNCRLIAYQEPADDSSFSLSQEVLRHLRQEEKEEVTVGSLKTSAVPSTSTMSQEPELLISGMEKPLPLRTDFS

Key:
[1] = target: E1A from HAdV-C5 (full length, transfected) (human adenovirus C serotype 5 (HAdV-C5)) (UniProt P03255); assay: co-IP; HEK293T cells cotransfected for 36 h; whole-cell lysates immunoprecipitated with anti-E1A, anti-V5 or anti-Flag antibody or control IgG; western blot
[2] = target: E1A from HAdV-C5 (full length, transfected) (human adenovirus C serotype 5 (HAdV-C5)) (UniProt P03255); assay: co-IP; HEK293T cells cotransfected with V5-tagged TRIM56 and E1A, with or without Flag-tagged STING; lysates immunoprecipitated with anti-V5 or anti-E1A antibody; 'competitive binding assays'
[3] = target: Flag-tagged STING (UniProt Q86WV6); assay: co-IP; HEK293T cells cotransfected for 36 h; whole-cell lysates immunoprecipitated with anti-E1A, anti-V5 or anti-Flag antibody or control IgG; western blot
[4] = target: E1A from HAdV-C5 (full length, transfected) (human adenovirus C serotype 5 (HAdV-C5)) (UniProt P03255); assay: as above; remark: listed apart in the source
[5] = target: viral E1A (expressed during HAdV-C5 infection) (human adenovirus C serotype 5 (HAdV-C5)) (UniProt P03255); assay: co-IP; A549 cells infected with HAdV-C5 (MOI 20 or 10) for 30 h; whole-cell lysates immunoprecipitated with anti-E1A or anti-TRIM56 antibody or control IgG; also with lysates treated with RNase A

With “Flag-tagged STING (from UniProt Q86WV6 1-379)” the binding [1] was “binds”.

B1: V5-tagged TRIM56 (full length) (protein, UniProt Q9BRZ2 1-755)
chain: MVSHGSSPSLLEALSSDFLACKICLEQLRAPKTLPCLHTYCQDCLAQLADGGRVRCPECRETVPVPPEGVASFKTNFFVNGLLDLVKARACGDLRAGKPACALCPLVGGTSTGGPATARCLDCADDLCQACADGHRCTRQTHTHRVVDLVGYRAGWYDEEARERQAAQCPQHPGEALRFLCQPCSQLLCRECRLDPHLDHPCLPLAEAVRARRPGLEGLLAGVDNNLVELEAARRVEKEALARLREQAARVGTQVEEAAEGVLRALLAQKQEVLGQLRAHVEAAEEAARERLAELEGREQVARAAAAFARRVLSLGREAEILSLEGAIAQRLRQLQGCPWAPGPAPCLLPQLELHPGLLDKNCHLLRLSFEEQQPQKDGGKDGAGTQGGEESQSRREDEPKTERQGGVQPQAGDGAQTPKEEKAQTTREEGAQTLEEDRAQTPHEDGGPQPHRGGRPNKKKKFKGRLKSISREPSPALGPNLDGSGLLPRPIFYCSFPTRMPGDKRSPRITGLCPFGPREILVADEQNRALKRFSLNGDYKGTVPVPEGCSPCSVAALQSAVAFSASARLYLINPNGEVQWRRALSLSQASHAVAALPSGDRVAVSVAGHVEVYNMEGSLATRFIPGGKASRGLRALVFLTTSPQGHFVGSDWQQNSVVICDGLGQVVGEYKGPGLHGCQPGSVSVDKKGYIFLTLREVNKVVILDPKGSLLGDFLTAYHGLEKPRVTTMVDGRYLVVSLSNGTIHIFRVRSPDS
For B1, the binding [2] was “binds”, the binding [3] was “binds” and the binding [4] was “binds”.

B2: endogenous TRIM56 (protein, UniProt Q9BRZ2 1-755)
chain: MVSHGSSPSLLEALSSDFLACKICLEQLRAPKTLPCLHTYCQDCLAQLADGGRVRCPECRETVPVPPEGVASFKTNFFVNGLLDLVKARACGDLRAGKPACALCPLVGGTSTGGPATARCLDCADDLCQACADGHRCTRQTHTHRVVDLVGYRAGWYDEEARERQAAQCPQHPGEALRFLCQPCSQLLCRECRLDPHLDHPCLPLAEAVRARRPGLEGLLAGVDNNLVELEAARRVEKEALARLREQAARVGTQVEEAAEGVLRALLAQKQEVLGQLRAHVEAAEEAARERLAELEGREQVARAAAAFARRVLSLGREAEILSLEGAIAQRLRQLQGCPWAPGPAPCLLPQLELHPGLLDKNCHLLRLSFEEQQPQKDGGKDGAGTQGGEESQSRREDEPKTERQGGVQPQAGDGAQTPKEEKAQTTREEGAQTLEEDRAQTPHEDGGPQPHRGGRPNKKKKFKGRLKSISREPSPALGPNLDGSGLLPRPIFYCSFPTRMPGDKRSPRITGLCPFGPREILVADEQNRALKRFSLNGDYKGTVPVPEGCSPCSVAALQSAVAFSASARLYLINPNGEVQWRRALSLSQASHAVAALPSGDRVAVSVAGHVEVYNMEGSLATRFIPGGKASRGLRALVFLTTSPQGHFVGSDWQQNSVVICDGLGQVVGEYKGPGLHGCQPGSVSVDKKGYIFLTLREVNKVVILDPKGSLLGDFLTAYHGLEKPRVTTMVDGRYLVVSLSNGTIHIFRVRSPDS
B2 was tested, and the binding [5] was “binds”.
